# Source: the supplement of paper PMC7858590
# Where “and” joins values, the source holds several entries; their conditions need not be identical. Equal entries are not always repeated. ± gives the standard deviation of the averaged measurements. In all, about 3,800 compounds were measured (“cell shape (eccentricity) Z-score vs DMSO control”: median about 1.1, lowest 2% from about -4.7 on). This is one part of the list.
# System: human monocyte-derived macrophages (M0)
# Assay: cell shape (eccentricity) Z-score vs DMSO control; higher = more elongated, M2-like morphology
# Conditions: 20 µM; 24 h; macrophage state: M0 (M-CSF)
row,Compound,cell shape (Z-score)
1,COc1ccc2c(c1)O[C@H]1c3ccc(O)cc3OC[C@@H]21,1.83
2,CC(C)NNC(=O)c1ccncc1,0.00576
3,COCCCOc1ccnc(CS(=O)c2nc3ccccc3[nH]2)c1C (stereo not drawn),-6.29
4,O=C(NCC1CCCCN1)c1cc(OCC(F)(F)F)ccc1OCC(F)(F)F (stereo not drawn),1.95
5,Cc1c(N(C)CS(=O)(=O)O)c(=O)n(-c2ccccc2)n1C,-0.614
6,OCc1cc2c([nH]c3ccccc32)c(C(O)CO)n1 (stereo not drawn),3.05
7,CCCCCN(CCCCC)C(=O)C(CCC(=O)O)NC(=O)c1ccc(Cl)c(Cl)c1 (stereo not drawn),0.899
8,CC(=O)NNC(=O)N1Cc2ccccc2Oc2ccc(Cl)cc21,2.13
9,Cn1c([N+](=O)[O-])cnc1COC(N)=O,5.6
10,CC1(COc2ccc(CC3SC(=O)NC3=O)cc2)CCCCC1 (stereo not drawn),1.51
11,COc1cc2ccc(=O)oc2c(CC=C(C)C)c1OC,1.91
12,COc1cc(O)c2c(c1)C(=O)c1cc(C)cc(O)c1C2=O,2.65
13,Cc1ccc(/C(=C\CN2CCCC2)c2ccccn2)cc1,1.6
14,O=c1oc2c(O)c(O)cc3c(=O)oc4c(O)c(O)cc1c4c23,-0.198
15,O=C(c1cc(Cc2n[nH]c(=O)c3ccccc23)ccc1F)N1CCN(C(=O)C2CC2)CC1,2.18
16,N[C@@H](C(=O)O)C1=CCC=CC1,3.02
17,COc1ccc(C2(CNC(=O)c3ccc(NC(=O)c4ccco4)cc3)CCOCC2)cc1,5.64
18,C/C=C1\C(O[C@@H]2O[C@H](CO)[C@@H](O)[C@H](O)[C@H]2O)OC=C(C(=O)OC)C1CC(=O)OCC(O)c1ccc(O)c(O)c1 (stereo partly drawn),0.603
19,O=c1cc(-c2ccc(O)cc2)oc2cc(O)ccc12,6.38
20,C[C@]12CCC3c4ccc(OC(=O)c5ccccc5)cc4CCC3C1CCC2=O (stereo partly drawn),1.95
21,C[C@H](CS)C(=O)N1CCC[C@H]1C(=O)O,-0.0396
22,OC[C@H]1O[C@@H](OCCc2ccccc2)[C@H](O)[C@@H](O)[C@@H]1O,4.65
23,C/C=C(\C)C(=O)OC(C)(C)C1Cc2cc3ccc(=O)oc3cc2O1 (stereo not drawn),-0.504 ± 0.21
24,C[C@@]1(C(=O)Nc2ccc(F)nc2)CCCN1c1nc(Nc2cc(C3CC3)n[nH]2)c2cccn2n1,5.78
25,CC1CC[C@]2(C(=O)OC3OC(COC4OC(CO)C(O)C(O)C4O)C(O)C(O)C3O)CC[C@]3(C(=O)O)C(=CCC4[C@@]5(C)CC[C@H](OC6OC(C)C(O)C(O)C6O)C(C)(C)C5CC[C@]43C)C2C1C (stereo partly drawn),2.48

# Look-ups from the results shown.
# O=C(NCC1CCCCN1)c1cc(OCC(F)(F)F)ccc1OCC(F)(F)F (stereo not drawn) – cell shape (Z-score): 1.95
# Cc1c(N(C)CS(=O)(=O)O)c(=O)n(-c2ccccc2)n1C – cell shape (Z-score): -0.614

# Four records drawn at random from those above, as already listed:
row,Compound,cell shape (Z-score)
14,O=c1oc2c(O)c(O)cc3c(=O)oc4c(O)c(O)cc1c4c23,-0.198
17,COc1ccc(C2(CNC(=O)c3ccc(NC(=O)c4ccco4)cc3)CCOCC2)cc1,5.64
24,C[C@@]1(C(=O)Nc2ccc(F)nc2)CCCN1c1nc(Nc2cc(C3CC3)n[nH]2)c2cccn2n1,5.78
10,CC1(COc2ccc(CC3SC(=O)NC3=O)cc2)CCCCC1 (stereo not drawn),1.51

# Further results

row,Compound,cell shape (Z-score)
1,OC1(c2ccc(Cl)cc2)CCN(Cc2c[nH]c3ccccc23)CC1,1.03
2,C=CC1C(=C)CCC2C1CCC1C(C)(C(=O)O)CCCC21C (stereo not drawn),1.19 ± 1.4
3,CC1Cc2ccccc2N1NC(=O)c1ccc(Cl)c(S(N)(=O)=O)c1 (stereo not drawn),0.275
4,CCN1C(=O)C=CC1=O,0.508
5,COc1cc(O)cc(OC)c1OC,0.967
6,COc1ccc([C@@H]2Sc3ccccc3N(CCN(C)C)C(=O)[C@@H]2OC(C)=O)cc1,1.41 and 1.58
7,C=C(COC(=O)C(C)C)C1Oc2cc(C(C)=O)ccc2C1OC(=O)C(C)C (stereo not drawn),1.56
8,COc1ccc(/C=C/C(=O)CC(=O)/C=C/c2cccc(O)c2OC)cc1O,0.215
9,COc1cc2nc(N3CCN(C(=O)C4CCCO4)CC3)nc(N)c2cc1OC (stereo not drawn),0.209
10,COc1cc2c(c3oc(-c4ccccc4)cc(=O)c13)C=CC(C)(C)O2,0.908
11,O=C1C[C@@H](c2ccc(O)cc2)Oc2cc(O)cc(O)c21,1.5
12,Cc1ncc([N+](=O)[O-])n1CCO,2.83
13,CC1CCN(CC[C@H]2CCCN2S(=O)(=O)c2cccc(O)c2)CC1,1.23
14,O=c1cc(-c2ccccc2)oc2cc(O)c(O)c(O)c12,3.42
15,COc1cc(C2c3cc(O)c(OC)cc3CC(CO)C2CO[C@@H]2O[C@H](CO)[C@@H](O)[C@H](O)[C@H]2O)ccc1O (stereo partly drawn),2.04
16,CC(=O)c1c(O)cc(O[C@@H]2O[C@H](CO)[C@@H](O)[C@H](O)[C@H]2O)cc1O,0.518
17,COc1cc2c(cc1OC)Cc1cc(OC)c(OC)cc1Cc1cc(OC)c(OC)cc1C2,1.31
18,C=C(C(=O)O)C1CCC2(C)CCC(=O)C(C)=C2C1 (stereo not drawn),0.463
19,C[C@H]1O[C@@H](O[C@H]2CC[C@@]3(C)C(CC[C@]4(C)C3CC=C3C5CC(C)(C)CC[C@]5(C(=O)O)CC[C@]34C(=O)O)C2(C)C)[C@H](O)[C@@H](O)[C@@H]1O (stereo partly drawn),0.659
20,CC1C(=O)C(=O)[C@@H]2O[C@@H]2C1=O (stereo partly drawn),5.29
21,Oc1c(Cl)cc(Cl)c2cccnc12,1.98
22,C[C@@H]1O[C@@H](OC[C@H]2OC(Oc3c(-c4ccc(OCCO)c(OCCO)c4)oc4cc(OCCO)cc(O)c4c3=O)[C@H](O)[C@@H](O)[C@@H]2O)[C@H](O)[C@H](O)[C@H]1O (stereo partly drawn),-2.65
23,COC1=CC(c2cc3ccccc3[nH]2)=N/C1=C\c1[nH]c(C)cc1C,4.32
24,CC(Cc1cccc(C(F)(F)F)c1)NCCOC(=O)c1ccccc1 (stereo not drawn),-2.44
25,COc1cc2ncnc(Nc3cccc(Br)c3)c2cc1OC,3.49

row,Compound,cell shape (Z-score)
1,COc1ccc(Cl)cc1NC(=O)Nc1cc(C)nc2ccccc12,1.69
2,CN(C)CCC(c1ccc(Br)cc1)c1ccccn1 (stereo not drawn),2.08
3,O=C(O)CCNC(=O)c1ccccc1,2.44
4,Cc1cc(O)c(C=O)c2c1C(=O)Oc1c(C)c(O)c3c(c1O2)C(O)OC3=O (stereo not drawn),1.11
5,CNC(=O)C1OC(n2cnc3c(NCc4cccc(I)c4)nc(Cl)nc32)C(O)C1O (stereo not drawn),3.88
6,Cn1cc[nH]c1=S,1.13
7,Cc1cnc(C(=O)NCCc2ccc(S(=O)(=O)NC(=O)NC3CCCCC3)cc2)cn1,1.9
8,CC(=O)OC[C@H]1O[C@@H](Oc2c(-c3ccc(O)c(O)c3)oc3cc(O)cc(O)c3c2=O)[C@H](O)[C@@H](O)[C@@H]1O,2.8
9,CCC(=O)OCC(=O)[C@@]1(OC(=O)CC)[C@@H](C)CC2C3CCC4=CC(=O)C=C[C@]4(C)C3(F)[C@@H](O)C[C@@]21C (stereo partly drawn),-1.64
10,CCOC(=O)[C@H]1O[C@@H]1C(=O)N[C@@H](CC(C)C)C(=O)NCCC(C)C,-2.63
11,C[C@H]1CC2C3CCC4=CC(=O)C=C[C@]4(C)[C@@]3(F)[C@@H](O)C[C@]2(C)[C@@]1(O)C(=O)COP(=O)(O)O (stereo partly drawn),-3.46
12,CCCC(O)/C(=C/C1=C(C(=O)CC(CC(=O)O)OC(N)=O)C(=O)c2cccc(O)c2C1=O)CC(C(=O)O)[N+](C)(C)C (stereo not drawn),-1.12
13,Nc1ncnc2[nH]nc(Nc3ccc(F)cc3)c12,8.81
14,O=C1c2ccc(Nc3ccc(F)cc3F)cc2CCc2ccc(OC[C@H](O)CO)cc21,-6.5
15,C=C(C(=O)O)C(CCCCC(C)O)C(=O)O (stereo not drawn),3.09
16,COc1cc(C)c2c(=O)cc(-c3ccccc3)oc2c1,1.41
17,O=C(Nc1ccccc1)NC1CC(C(=O)O)Nc2cc(Cl)cc(Cl)c21 (stereo not drawn),1.59
18,CC(C)NCC(O)COc1ccc(CC(N)=O)cc1 (stereo not drawn),0.881
19,Brc1cccc(Nc2ncnc3cc4[nH]cnc4cc23)c1,1.28
20,COc1ccc(-c2coc3cc(O)ccc3c2=O)c(OC)c1,3.35
21,NC(=O)[C@H]1CCCc2c1[nH]c1ccc(Cl)cc21,5.27
22,Sc1ncnc2[nH]ncc12,0.063
23,CCCCCCC(=O)OC1OC(CO)C(O)C2OCC(C(=O)O)COC12 (stereo not drawn),-0.258
24,CC(=O)[C@H]1CCC2C3CC=C4C[C@@H](OC(=O)CCC(=O)O)CC[C@]4(C)C3CC[C@@]21C (stereo partly drawn),-1.65
25,CC(=O)Nc1ccc(S(=O)(=O)c2ccc(NC(C)=O)cc2)cc1,3.27

row,Compound,cell shape (Z-score)
1,COC(=O)Nc1nc2cc(Sc3ccccc3)ccc2[nH]1,-2.59 ± 3.9
2,O=c1c(O)c(-c2cc(O)c(O)c(O)c2)oc2cc(O)cc(O)c12,3.98
3,C[C@H]1[C@H](C)CC[C@]2(C(=O)O)CC[C@]3(C(=O)O)C(=CCC4[C@@]5(C)CC[C@H](O[C@@H]6O[C@@H](C)[C@H](O)[C@@H](O)[C@H]6O)C(C)(C)C5CC[C@]43C)[C@H]12 (stereo partly drawn),0.924 ± 0.21
4,N#Cc1ccccc1OCC(O)CNCCNC(=O)Nc1ccccc1 (stereo not drawn),-2.75
5,COc1cc2c(c(OC)c1)C(=O)OC(C)C2 (stereo not drawn),-2.38
6,CC(C)N1c2ccccc2C(c2ccc(F)cc2)C1/C=C/C(O)CC(O)CC(=O)O (stereo not drawn),2.93 ± 4.8
7,CN1CCN(C2=Nc3cc(Cl)ccc3Nc3ccccc32)CC1,2.44
8,CO/N=C1\CN(c2nc3c(cc2F)c(=O)c(C(=O)O)cn3C2CC2)CC1CN (stereo not drawn),0.169
9,O=C(O)CC(CCc1ccccc1)OC1OC(CO)C(O)C(O)C1O (stereo not drawn),1.75
10,CS(=O)(=O)c1ccc(-c2nc(-c3ccc(F)cc3)c(-c3ccncc3)[nH]2)cc1,1.46
11,C=C1CCCC(C)(C(=O)OC)C1CC/C(C)=C/CCC1=CC(=O)OC1 (stereo not drawn),6.46
12,C=CCc1ccccc1OCC(O)CNC(C)C (stereo not drawn),-0.655
13,CC1CCCC[C@H]2C(=O)C=C[C@H](O)[C@@H]2CC(=O)O1 (stereo partly drawn),0.141
14,O=C(O)Cc1cc2ccccc2nc1C(=O)O,-0.316
15,CCC(C)n1ncn(-c2ccc(N3CCN(c4ccc(OCC5COC(Cn6cncn6)(c6ccc(Cl)cc6Cl)O5)cc4)CC3)cc2)c1=O (stereo not drawn),-0.941
16,CN1CCN(CCc2ccc(Cl)c(Cl)c2)CC1,2.1
17,CC1(C)C=Cc2cc3ccc(=O)oc3cc2O1,2.39
18,CCCNC(=O)NS(=O)(=O)c1ccc(Cl)cc1,3.2
19,CCC(C)C(O)C(C)(O)/C=C/C1=CC2=C(Cl)C(=O)C(C)(O)C(O)C2CO1 (stereo not drawn),-2.31
20,C[C@H]1O[C@@H](O[C@H]2[C@@H](O)C[C@H](O[C@H]3[C@@H](O)C[C@H](O[C@H]4CC[C@]5(C)C6C[C@@H](O)[C@]7(C)[C@@H](C8=CC(=O)OC8)CC[C@]7(O)C6CC[C@@H]5C4)O[C@@H]3C)O[C@@H]2C)C[C@H](O)[C@@H]1O (stereo partly drawn),-1.93
21,COc1cc(-c2coc3cc(OC)c(OC)c(OC)c3c2=O)cc(OC)c1OC,-0.253
22,NC1CCN(c2cccc(Cl)n2)CC1,-0.0172
23,CC(C)=CCC[C@]1(C)[C@@H](CC=C(C)C)CC2(CC=C(C)C)C(=O)C(CC=C(C)C)C(=O)[C@@]1(C(=O)C(C)C)C2=O (stereo partly drawn),1.59
